PubChem BioAssay AID1224826 – NIAID, 2016
Assay: 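Regulators of Tlr4 signalling leading to Tnf-alpha expression in macrophages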 (primary screen). Cell system: RAW264.7 G9 macrophages from mouse bearing reporters for p65 (GFP) and the Tnf promoter (mCherry). Knock-down reagent: siRNA pool against mouse genes, 100 nM. Duration: 16 h of LPS stimulation, after 2 days of siRNA transfection. Treatment: bacterial lipopolysaccharide (Salmonella minnesota R595), 10 ng/ml. Read-out: 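Imaged Tnf reporter mCherry in nuclei, minus background, normalised per plate to the median and expressed as robust z-scores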. Direction: Tnf reporter robust z-score: higher = stronger Tnf promoter reporter signal after LPS. Call rule: 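Called active when robust z-score is at most -1.3, matching the median of the Tlr4 knock-down control, or over 3; control wells and wells with under 50 cells never active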. Calls: active = Tnf reporter clearly lowered or raised; inactive = no clear change in Tnf reporter.
The deposit covers about 17,000 reagents; this is an unselected part. About 1,110 of them (6.6%) count as active. 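Active means lowered or raised reporter signal; replicate intensities are raw and not normalised per plate.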 Not all columns of the deposit are shown.

Pola2 (polymerase (DNA directed), alpha 2) scored Tnf reporter robust z-score 0.59; fewer than 50 cells in well enough cells in well; inactive.
Against Snai2 (snail family zinc finger 2), the values are Tnf reporter robust z-score 0.76; fewer than 50 cells in well enough cells in well; inactive.
Or2t6 (olfactory receptor family 2 subfamily T member 6) scored Tnf reporter robust z-score -0.55; fewer than 50 cells in well enough cells in well; inactive.
Ccna2 (cyclin A2) showed Tnf reporter robust z-score -0.49; fewer than 50 cells in well enough cells in well; inactive.
Depletion of Itga5 (integrin alpha 5 (fibronectin receptor alpha)) gave: Tnf reporter robust z-score 0.57; fewer than 50 cells in well enough cells in well; inactive.
2810428J06Rik (RIKEN cDNA 2810428J06 gene) gave Tnf reporter robust z-score 1.47; fewer than 50 cells in well enough cells in well; inactive.
Tbc1d20 (TBC1 domain family, member 20) showed Tnf reporter robust z-score -0.42; fewer than 50 cells in well enough cells in well; inactive.
For Chrna5 (cholinergic receptor, nicotinic, alpha polypeptide 5), the values are Tnf reporter robust z-score -0.7; fewer than 50 cells in well enough cells in well; inactive.
Knock-down of Nkain3 (Na+/K+ transporting ATPase interacting 3) came out at: Tnf reporter robust z-score 0.85; fewer than 50 cells in well enough cells in well; inactive.
For Rad9a (RAD9 checkpoint clamp component A), the entry reads Tnf reporter robust z-score -0.08; fewer than 50 cells in well enough cells in well; inactive.
For Sra1 (steroid receptor RNA activator 1) the deposit lists Tnf reporter robust z-score 3.88; fewer than 50 cells in well enough cells in well; active.
For Grem2 (gremlin 2, DAN family BMP antagonist), the entry reads Tnf reporter robust z-score -0.23; fewer than 50 cells in well enough cells in well; inactive.
For Klk1b1 (kallikrein 1-related peptidase b1), the entry reads Tnf reporter robust z-score 0.43; fewer than 50 cells in well enough cells in well; inactive.
Vmn1r9 (vomeronasal 1 receptor 9) scored Tnf reporter robust z-score -1.52; fewer than 50 cells in well enough cells in well; active.
